Results from the supplement of paper PMC12823440, “Inhibitors supercharge kinase turnover through native proteolytic circuits” (Nature, 2025).
Some of the results follow. Hit calls seldom repeat between salt and free forms of one compound.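 In K562 cells expressing nanoluciferase-fused kinases, luminescence was recorded at 4 h intervals between 2 and 18 h, normalized as percent of control with DMSO at 100% and a positive control at 0%. A significant (2 sigma) signal drop marks a time point as decreased. The authors' rule for a hit is not shown and takes in more than the number of time points.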

By UniProt entry, the sequences of proteins in these tests, tags left out. Where a name states a change or a piece, a line headed by the entry shows the natural chain unless it says otherwise.
UniProt P28482, whole entry: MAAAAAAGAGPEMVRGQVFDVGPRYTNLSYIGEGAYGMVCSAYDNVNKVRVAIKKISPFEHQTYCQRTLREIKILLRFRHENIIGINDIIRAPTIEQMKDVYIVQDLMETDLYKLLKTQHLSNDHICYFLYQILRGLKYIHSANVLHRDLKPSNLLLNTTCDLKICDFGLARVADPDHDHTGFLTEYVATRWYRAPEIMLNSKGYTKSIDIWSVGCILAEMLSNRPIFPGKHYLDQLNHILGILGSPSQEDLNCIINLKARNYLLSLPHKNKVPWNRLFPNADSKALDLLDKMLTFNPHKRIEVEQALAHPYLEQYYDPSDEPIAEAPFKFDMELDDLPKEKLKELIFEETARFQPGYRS
UniProt P31152, whole entry: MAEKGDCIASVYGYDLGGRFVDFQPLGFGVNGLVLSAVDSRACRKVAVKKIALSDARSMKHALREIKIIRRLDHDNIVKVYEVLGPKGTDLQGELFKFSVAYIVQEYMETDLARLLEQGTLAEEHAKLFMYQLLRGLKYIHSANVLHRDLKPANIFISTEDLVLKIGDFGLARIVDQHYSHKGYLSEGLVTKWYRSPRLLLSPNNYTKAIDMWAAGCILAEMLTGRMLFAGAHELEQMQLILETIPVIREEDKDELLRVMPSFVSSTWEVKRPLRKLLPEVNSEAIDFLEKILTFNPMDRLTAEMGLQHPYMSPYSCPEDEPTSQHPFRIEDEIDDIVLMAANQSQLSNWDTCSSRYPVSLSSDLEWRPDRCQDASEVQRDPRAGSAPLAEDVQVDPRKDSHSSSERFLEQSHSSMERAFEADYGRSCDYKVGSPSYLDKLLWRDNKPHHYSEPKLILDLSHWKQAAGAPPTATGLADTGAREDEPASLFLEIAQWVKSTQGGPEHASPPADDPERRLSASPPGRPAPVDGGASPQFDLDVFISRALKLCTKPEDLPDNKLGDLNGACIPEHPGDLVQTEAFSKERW
UniProt P49137, whole entry, looked up: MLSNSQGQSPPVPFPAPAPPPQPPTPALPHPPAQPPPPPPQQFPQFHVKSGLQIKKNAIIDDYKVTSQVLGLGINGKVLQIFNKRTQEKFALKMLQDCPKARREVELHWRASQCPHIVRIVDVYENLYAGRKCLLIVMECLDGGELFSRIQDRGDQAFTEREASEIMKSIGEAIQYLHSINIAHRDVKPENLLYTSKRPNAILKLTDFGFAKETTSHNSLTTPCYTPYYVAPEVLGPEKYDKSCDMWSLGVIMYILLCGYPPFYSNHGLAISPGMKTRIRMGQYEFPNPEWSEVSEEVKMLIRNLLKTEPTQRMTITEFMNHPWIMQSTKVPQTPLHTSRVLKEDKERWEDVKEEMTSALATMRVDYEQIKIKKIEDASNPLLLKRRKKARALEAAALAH
UniProt Q9BUB5: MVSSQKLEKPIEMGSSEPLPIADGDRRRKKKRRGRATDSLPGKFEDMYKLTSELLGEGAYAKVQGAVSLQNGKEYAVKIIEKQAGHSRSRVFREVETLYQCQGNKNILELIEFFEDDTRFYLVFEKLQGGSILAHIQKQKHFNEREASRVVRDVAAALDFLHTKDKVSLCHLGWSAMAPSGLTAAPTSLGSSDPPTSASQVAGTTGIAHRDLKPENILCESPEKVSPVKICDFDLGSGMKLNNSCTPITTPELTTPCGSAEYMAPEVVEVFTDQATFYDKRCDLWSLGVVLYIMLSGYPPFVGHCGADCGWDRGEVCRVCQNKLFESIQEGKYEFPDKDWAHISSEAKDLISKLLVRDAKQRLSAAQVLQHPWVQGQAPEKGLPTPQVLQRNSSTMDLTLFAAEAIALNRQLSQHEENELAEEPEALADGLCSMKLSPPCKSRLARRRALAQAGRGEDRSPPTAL
UniProt P42356, whole entry, looked up: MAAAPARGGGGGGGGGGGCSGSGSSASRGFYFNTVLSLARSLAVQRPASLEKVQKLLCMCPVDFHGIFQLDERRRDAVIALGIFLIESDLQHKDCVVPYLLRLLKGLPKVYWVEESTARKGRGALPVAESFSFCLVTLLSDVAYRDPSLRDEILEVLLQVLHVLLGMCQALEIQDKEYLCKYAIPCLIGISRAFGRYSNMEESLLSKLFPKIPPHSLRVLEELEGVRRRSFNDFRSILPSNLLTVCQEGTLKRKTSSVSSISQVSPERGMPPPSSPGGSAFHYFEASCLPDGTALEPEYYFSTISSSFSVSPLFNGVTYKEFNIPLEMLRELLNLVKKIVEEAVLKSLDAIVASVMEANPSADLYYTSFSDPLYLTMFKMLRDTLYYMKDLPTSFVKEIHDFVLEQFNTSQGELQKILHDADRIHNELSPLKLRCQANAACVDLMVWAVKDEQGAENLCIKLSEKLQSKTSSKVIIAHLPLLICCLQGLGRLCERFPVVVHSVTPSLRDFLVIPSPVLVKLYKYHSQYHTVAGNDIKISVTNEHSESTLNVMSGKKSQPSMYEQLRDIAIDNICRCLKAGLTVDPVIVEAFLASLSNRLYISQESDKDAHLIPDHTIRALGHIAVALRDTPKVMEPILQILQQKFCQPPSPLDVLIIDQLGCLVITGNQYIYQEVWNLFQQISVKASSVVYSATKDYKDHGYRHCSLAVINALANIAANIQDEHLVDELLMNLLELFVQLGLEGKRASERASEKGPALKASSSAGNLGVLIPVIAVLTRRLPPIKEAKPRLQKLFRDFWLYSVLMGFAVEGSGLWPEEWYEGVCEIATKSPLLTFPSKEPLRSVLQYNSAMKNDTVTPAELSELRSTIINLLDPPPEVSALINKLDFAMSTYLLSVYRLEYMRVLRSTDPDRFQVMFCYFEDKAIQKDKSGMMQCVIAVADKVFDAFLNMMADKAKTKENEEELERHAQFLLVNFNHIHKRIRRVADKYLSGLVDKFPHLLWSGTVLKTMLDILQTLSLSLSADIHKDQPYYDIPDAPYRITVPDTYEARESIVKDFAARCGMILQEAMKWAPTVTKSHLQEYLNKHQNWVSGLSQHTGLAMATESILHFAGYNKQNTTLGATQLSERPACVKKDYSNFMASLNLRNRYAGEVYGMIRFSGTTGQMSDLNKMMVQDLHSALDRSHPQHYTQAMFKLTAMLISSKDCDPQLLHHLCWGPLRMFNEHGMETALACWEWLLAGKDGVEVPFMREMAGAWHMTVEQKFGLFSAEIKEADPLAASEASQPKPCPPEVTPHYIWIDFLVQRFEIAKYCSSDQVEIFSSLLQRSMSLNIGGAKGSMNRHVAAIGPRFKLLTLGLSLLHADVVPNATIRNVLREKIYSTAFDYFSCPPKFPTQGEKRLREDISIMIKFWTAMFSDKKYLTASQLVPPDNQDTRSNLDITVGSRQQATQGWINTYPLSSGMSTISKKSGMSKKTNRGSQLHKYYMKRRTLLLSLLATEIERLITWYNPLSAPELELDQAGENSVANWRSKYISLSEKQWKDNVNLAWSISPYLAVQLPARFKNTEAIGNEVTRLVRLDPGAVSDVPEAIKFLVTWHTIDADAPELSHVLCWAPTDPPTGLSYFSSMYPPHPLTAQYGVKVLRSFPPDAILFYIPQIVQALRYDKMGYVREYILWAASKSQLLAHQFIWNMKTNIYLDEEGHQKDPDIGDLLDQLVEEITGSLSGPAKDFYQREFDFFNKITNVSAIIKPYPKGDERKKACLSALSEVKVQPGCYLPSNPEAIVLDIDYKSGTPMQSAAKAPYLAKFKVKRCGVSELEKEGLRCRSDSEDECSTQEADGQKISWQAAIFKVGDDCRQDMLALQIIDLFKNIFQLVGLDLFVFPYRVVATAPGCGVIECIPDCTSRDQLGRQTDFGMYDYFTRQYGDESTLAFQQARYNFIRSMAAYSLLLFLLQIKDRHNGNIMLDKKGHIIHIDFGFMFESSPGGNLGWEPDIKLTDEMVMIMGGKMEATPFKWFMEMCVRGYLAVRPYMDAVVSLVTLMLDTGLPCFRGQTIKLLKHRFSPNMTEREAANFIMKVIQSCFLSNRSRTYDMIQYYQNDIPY
UniProt P53350, whole entry: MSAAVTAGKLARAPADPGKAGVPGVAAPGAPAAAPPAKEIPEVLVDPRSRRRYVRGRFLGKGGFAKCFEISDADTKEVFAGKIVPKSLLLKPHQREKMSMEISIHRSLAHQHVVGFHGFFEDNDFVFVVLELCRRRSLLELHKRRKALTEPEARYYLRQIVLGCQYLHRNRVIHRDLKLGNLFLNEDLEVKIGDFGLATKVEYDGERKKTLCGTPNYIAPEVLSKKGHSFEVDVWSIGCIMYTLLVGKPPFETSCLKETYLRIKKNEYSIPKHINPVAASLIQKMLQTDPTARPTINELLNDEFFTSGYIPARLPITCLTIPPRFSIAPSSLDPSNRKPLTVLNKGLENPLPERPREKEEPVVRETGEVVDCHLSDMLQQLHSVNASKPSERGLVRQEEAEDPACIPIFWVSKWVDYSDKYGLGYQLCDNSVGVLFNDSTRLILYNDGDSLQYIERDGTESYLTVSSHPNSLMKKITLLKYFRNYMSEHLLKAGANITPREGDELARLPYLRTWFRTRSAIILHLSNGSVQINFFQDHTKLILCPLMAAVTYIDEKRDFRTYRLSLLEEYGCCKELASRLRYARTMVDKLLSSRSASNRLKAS
UniProt Q05397, whole entry, looked up: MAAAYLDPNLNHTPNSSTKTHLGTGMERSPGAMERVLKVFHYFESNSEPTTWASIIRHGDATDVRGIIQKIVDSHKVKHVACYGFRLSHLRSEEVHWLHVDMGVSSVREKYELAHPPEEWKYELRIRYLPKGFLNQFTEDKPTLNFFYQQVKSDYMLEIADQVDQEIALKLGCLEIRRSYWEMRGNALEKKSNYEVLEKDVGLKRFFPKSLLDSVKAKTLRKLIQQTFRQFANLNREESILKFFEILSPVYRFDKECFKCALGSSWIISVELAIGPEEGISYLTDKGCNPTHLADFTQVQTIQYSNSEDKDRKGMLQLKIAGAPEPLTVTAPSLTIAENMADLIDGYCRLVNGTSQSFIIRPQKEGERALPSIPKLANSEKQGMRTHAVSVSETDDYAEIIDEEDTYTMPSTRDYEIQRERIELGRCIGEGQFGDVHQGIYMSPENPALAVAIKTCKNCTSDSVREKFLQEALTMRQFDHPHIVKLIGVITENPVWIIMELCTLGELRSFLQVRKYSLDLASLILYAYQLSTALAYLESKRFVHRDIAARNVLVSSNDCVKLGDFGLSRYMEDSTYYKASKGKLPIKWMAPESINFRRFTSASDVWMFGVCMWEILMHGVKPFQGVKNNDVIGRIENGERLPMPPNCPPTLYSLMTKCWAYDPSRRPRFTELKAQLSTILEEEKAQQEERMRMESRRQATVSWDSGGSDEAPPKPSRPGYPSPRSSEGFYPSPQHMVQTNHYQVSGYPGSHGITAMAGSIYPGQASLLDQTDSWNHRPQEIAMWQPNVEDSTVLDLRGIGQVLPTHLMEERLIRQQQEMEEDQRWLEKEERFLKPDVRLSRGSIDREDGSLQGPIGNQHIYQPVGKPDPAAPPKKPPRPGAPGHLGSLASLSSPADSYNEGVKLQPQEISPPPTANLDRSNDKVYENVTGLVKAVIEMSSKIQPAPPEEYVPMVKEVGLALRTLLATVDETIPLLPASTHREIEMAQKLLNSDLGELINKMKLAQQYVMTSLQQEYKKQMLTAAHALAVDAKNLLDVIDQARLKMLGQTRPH
UniProt Q14289, whole entry, looked up: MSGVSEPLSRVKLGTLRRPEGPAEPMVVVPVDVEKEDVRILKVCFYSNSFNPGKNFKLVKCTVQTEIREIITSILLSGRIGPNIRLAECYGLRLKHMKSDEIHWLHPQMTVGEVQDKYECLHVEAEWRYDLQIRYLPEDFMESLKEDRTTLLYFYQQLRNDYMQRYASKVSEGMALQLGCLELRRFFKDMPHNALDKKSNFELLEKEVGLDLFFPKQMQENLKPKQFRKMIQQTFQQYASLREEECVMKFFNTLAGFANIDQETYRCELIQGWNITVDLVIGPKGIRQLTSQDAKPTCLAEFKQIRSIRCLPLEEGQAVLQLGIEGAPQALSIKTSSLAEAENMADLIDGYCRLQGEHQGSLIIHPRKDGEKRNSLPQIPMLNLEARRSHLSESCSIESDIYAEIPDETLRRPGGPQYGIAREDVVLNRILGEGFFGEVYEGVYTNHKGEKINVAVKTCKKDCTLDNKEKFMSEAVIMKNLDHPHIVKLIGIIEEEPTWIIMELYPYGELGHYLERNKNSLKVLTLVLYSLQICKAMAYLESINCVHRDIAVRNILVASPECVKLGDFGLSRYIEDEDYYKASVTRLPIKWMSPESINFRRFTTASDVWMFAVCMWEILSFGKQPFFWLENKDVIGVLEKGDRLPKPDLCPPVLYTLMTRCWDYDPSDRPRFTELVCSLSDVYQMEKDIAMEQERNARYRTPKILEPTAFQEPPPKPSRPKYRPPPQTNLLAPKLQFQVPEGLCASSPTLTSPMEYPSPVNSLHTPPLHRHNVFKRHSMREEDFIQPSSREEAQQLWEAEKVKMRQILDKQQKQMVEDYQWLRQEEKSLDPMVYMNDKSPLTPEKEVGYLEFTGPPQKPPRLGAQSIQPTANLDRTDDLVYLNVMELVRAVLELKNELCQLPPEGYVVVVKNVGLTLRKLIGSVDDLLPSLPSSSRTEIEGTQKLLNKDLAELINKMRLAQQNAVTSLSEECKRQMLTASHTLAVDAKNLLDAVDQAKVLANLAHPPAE

Tests used:
Test in all cases: kinase-Nluc reporter destabilization hit call (1 = scored as downregulated) (binary); higher = compound decreases kinase abundance
Conditions in all cases: K562; 2-18 h
MAPK1 = MAPK1 (UniProt P28482)
MAPK4 = MAPK4 (UniProt P31152)
MAPKAPK2 = MAPKAPK2 (UniProt P49137)
MKNK1 = MKNK1 (UniProt Q9BUB5)
NTRK2 = NTRK2 (UniProt Q16620)
NTRK3 = NTRK3 (UniProt Q16288)
PAK4 = PAK4 (UniProt O96013)
PBK = PBK (UniProt Q96KB5)
PDGFRB = PDGFRB (UniProt P09619)
PDK1 = PDK1 (UniProt Q15118)
PDPK1 = PDPK1 (UniProt O15530)
PIK4CA = PIK4CA (UniProt P42356)
PIK4CB = PIK4CB (UniProt Q9UBF8)
PLK1 = PLK1 (UniProt P53350)
PRKAA1 = PRKAA1 (UniProt Q13131)
PRKCA = PRKCA (UniProt P17252)
PTK2 = PTK2 (UniProt Q05397)
PTK2B = PTK2B (UniProt Q14289)
RAF1 = RAF1 (UniProt P04049)
[1] = biological target: RAF1_S257L (clone: RAF1_mut) (UniProt P04049)

Measured: kinase-Nluc reporter destabilization hit call

NC(=O)c1cccc2c(N[C@H](CN3CCC3)c3ccc(Cl)c(C(F)(F)F)c3)ncnc12 (10 µM)
inactive: MAPK1 = 0 | MAPK4 = 0 | MAPKAPK2 = 0 | MKNK1 = 0 | NTRK2 = 0 | NTRK3 = 0 | PAK4 = 0 | PBK 0 | PDGFRB 0 | PDK1 = 0 | PDPK1 = 0 | PIK4CA 0 | PIK4CB 0 | PLK1 = 0 | PRKAA1 = 0 | PRKCA 0 | PTK2 = 0 | PTK2B 0 | RAF1 = 0 | [1] 0

CCOC(=O)C1=C[C@]2(CC)CCCN3CCc4c(n1c1ccccc41)[C@@H]32 [Vinpocetine] (10 µM)
inactive: MAPK1 = 0 | MAPK4 = 0 | MAPKAPK2 = 0 | MKNK1 = 0 | NTRK2 = 0 | NTRK3 = 0 | PAK4 = 0 | PBK 0 | PDGFRB 0 | PDK1 = 0 | PDPK1 = 0 | PIK4CA 0 | PIK4CB 0 | PLK1 = 0 | PRKAA1 = 0 | PRKCA 0 | PTK2 = 0 | PTK2B 0 | RAF1 = 0 | [1] 0

Cc1cc(Nc2ncc(Cl)c(Nc3ccccc3S(=O)(=O)C(C)C)n2)c(OC(C)C)cc1C1CCN(CC(=O)NCCNc2cccc3c2C(=O)N(C2CCC(=O)NC2=O)C3=O)CC1 (stereo not given) (10 µM)
active: PTK2 = 1
inactive: MAPK1 = 0 | MAPK4 = 0 | MAPKAPK2 = 0 | MKNK1 = 0 | NTRK2 = 0 | NTRK3 = 0 | PAK4 = 0 | PBK 0 | PDGFRB 0 | PDK1 = 0 | PDPK1 = 0 | PIK4CA 0 | PIK4CB 0 | PLK1 = 0 | PRKAA1 = 0 | PRKCA 0 | PTK2B 0 | RAF1 = 0 | [1] 0

Cn1cc(-c2ccc3ncc(Cc4ccc5ncccc5c4)n3n2)cn1 (10 µM)
inactive: MAPK1 = 0 | MAPK4 = 0 | MAPKAPK2 = 0 | MKNK1 = 0 | NTRK2 = 0 | NTRK3 = 0 | PAK4 = 0 | PBK 0 | PDGFRB 0 | PDK1 = 0 | PDPK1 = 0 | PIK4CA 0 | PIK4CB 0 | PLK1 = 0 | PRKAA1 = 0 | PRKCA 0 | PTK2 = 0 | PTK2B 0 | RAF1 = 0 | [1] 0

Cc1cc(/C=C2\CC/C(=C\c3cc(C)c(O)c(C)c3)C2=O)cc(C)c1O [Pentagamavunon-1] (2.5 µM)
inactive: MAPK1 = 0 | MAPK4 = 0 | MAPKAPK2 = 0 | MKNK1 = 0 | NTRK2 = 0 | NTRK3 = 0 | PAK4 = 0 | PBK 0 | PDGFRB 0 | PDK1 = 0 | PDPK1 = 0 | PIK4CA 0 | PIK4CB 0 | PLK1 = 0 | PRKAA1 = 0 | PRKCA 0 | PTK2 = 0 | PTK2B 0 | RAF1 = 0 | [1] 0

CCn1c2ccccc2c2cc(Nc3ccnc(NCCCN4CCOCC4)n3)ccc21 (2.5 µM)
inactive: MAPK1 = 0 | MAPK4 = 0 | MAPKAPK2 = 0 | MKNK1 = 0 | NTRK2 = 0 | NTRK3 = 0 | PAK4 = 0 | PBK 0 | PDGFRB 0 | PDK1 = 0 | PDPK1 = 0 | PIK4CA 0 | PIK4CB 0 | PLK1 = 0 | PRKAA1 = 0 | PRKCA 0 | PTK2 = 0 | PTK2B 0 | RAF1 = 0 | [1] 0

CC(C)(O)c1cc2nc(-c3cnc(N)nc3)nc(N3CCOCC3)c2s1 (2.5 µM)
inactive: MAPK1 = 0 | MAPK4 = 0 | MAPKAPK2 = 0 | MKNK1 = 0 | NTRK2 = 0 | NTRK3 = 0 | PAK4 = 0 | PBK 0 | PDGFRB 0 | PDK1 = 0 | PDPK1 = 0 | PIK4CA 0 | PIK4CB 0 | PLK1 = 0 | PRKAA1 = 0 | PRKCA 0 | PTK2 = 0 | PTK2B 0 | RAF1 = 0 | [1] 0

CC(C)[C@H](CO)Nc1nc(Nc2ccc(C(=O)O)c(Cl)c2)c2ncn(C(C)C)c2n1 [Purvalanol B] (10 µM)
inactive: MAPK1 = 0 | MAPK4 = 0 | MAPKAPK2 = 0 | MKNK1 = 0 | NTRK2 = 0 | NTRK3 = 0 | PAK4 = 0 | PBK 0 | PDGFRB 0 | PDK1 = 0 | PDPK1 = 0 | PIK4CA 0 | PIK4CB 0 | PLK1 = 0 | PRKAA1 = 0 | PRKCA 0 | PTK2 = 0 | PTK2B 0 | RAF1 = 0 | [1] 0

C[C@@H]1CC[C@]2(C(=O)O)CC[C@]3(C)C(=CC[C@@H]4[C@@]5(C)CC[C@H](O)[C@@](C)(CO)[C@@H]5CC[C@]43C)[C@@H]2[C@]1(C)O [Rotundic acid] (10 µM)
inactive: MAPK1 = 0 | MAPK4 = 0 | MAPKAPK2 = 0 | MKNK1 = 0 | NTRK2 = 0 | NTRK3 = 0 | PAK4 = 0 | PBK 0 | PDGFRB 0 | PDK1 = 0 | PDPK1 = 0 | PIK4CA 0 | PIK4CB 0 | PLK1 = 0 | PRKAA1 = 0 | PRKCA 0 | PTK2 = 0 | PTK2B 0 | RAF1 = 0 | [1] 0

C=CC(=O)Nc1cccc(Nc2nc(Nc3ccc(Oc4ccnc(C(=O)NC)c4)cc3)ncc2F)c1 (2.5 µM)
inactive: MAPK1 = 0 | MAPK4 = 0 | MAPKAPK2 = 0 | MKNK1 = 0 | NTRK2 = 0 | NTRK3 = 0 | PAK4 = 0 | PBK 0 | PDGFRB 0 | PDK1 = 0 | PDPK1 = 0 | PIK4CA 0 | PIK4CB 0 | PLK1 = 0 | PRKAA1 = 0 | PRKCA 0 | PTK2 = 0 | PTK2B 0 | RAF1 = 0 | [1] 0

COc1cc(OC)c(/C=C/S(=O)(=O)Cc2ccc(OC)c(NCC(=O)O)c2)c(OC)c1 [Rigosertib (sodium)] (10 µM)
inactive: MAPK1 = 0 | MAPK4 = 0 | MAPKAPK2 = 0 | MKNK1 = 0 | NTRK2 = 0 | NTRK3 = 0 | PAK4 = 0 | PBK 0 | PDGFRB 0 | PDK1 = 0 | PDPK1 = 0 | PIK4CA 0 | PIK4CB 0 | PLK1 = 0 | PRKAA1 = 0 | PRKCA 0 | PTK2 = 0 | PTK2B 0 | RAF1 = 0 | [1] 0

Cc1cc([N+](=O)[O-])c(NS(=O)(=O)c2cccc(C(=O)O)c2)cc1-c1cccnc1 [Alofanib] (10 µM)
inactive: MAPK1 = 0 | MAPK4 = 0 | MAPKAPK2 = 0 | MKNK1 = 0 | NTRK2 = 0 | NTRK3 = 0 | PAK4 = 0 | PBK 0 | PDGFRB 0 | PDK1 = 0 | PDPK1 = 0 | PIK4CA 0 | PIK4CB 0 | PLK1 = 0 | PRKAA1 = 0 | PRKCA 0 | PTK2 = 0 | PTK2B 0 | RAF1 = 0 | [1] 0

COC[C@H]1Cn2cc(-c3nc(Nc4ccnn4C)ncc3C)nc2C(=O)N1Cc1ccc(F)c(F)c1 (10 µM)
inactive: MAPK1 = 0 | MAPK4 = 0 | MAPKAPK2 = 0 | MKNK1 = 0 | NTRK2 = 0 | NTRK3 = 0 | PAK4 = 0 | PBK 0 | PDGFRB 0 | PDK1 = 0 | PDPK1 = 0 | PIK4CA 0 | PIK4CB 0 | PLK1 = 0 | PRKAA1 = 0 | PRKCA 0 | PTK2 = 0 | PTK2B 0 | RAF1 = 0 | [1] 0

CCCC[C@H](CO)Nc1nc(NC)ncc1OC [Interferon receptor inducer-1] (10 µM)
inactive: MAPK1 = 0 | MAPK4 = 0 | MAPKAPK2 = 0 | MKNK1 = 0 | NTRK2 = 0 | NTRK3 = 0 | PAK4 = 0 | PBK 0 | PDGFRB 0 | PDK1 = 0 | PDPK1 = 0 | PIK4CA 0 | PIK4CB 0 | PLK1 = 0 | PRKAA1 = 0 | PRKCA 0 | PTK2 = 0 | PTK2B 0 | RAF1 = 0 | [1] 0

CN(C)CCCNc1ccn2ncc(-c3ccc4c(c3)OCO4)c2n1 (10 µM)
inactive: MAPK1 = 0 | MAPK4 = 0 | MAPKAPK2 = 0 | MKNK1 = 0 | NTRK2 = 0 | NTRK3 = 0 | PAK4 = 0 | PBK 0 | PDGFRB 0 | PDK1 = 0 | PDPK1 = 0 | PIK4CA 0 | PIK4CB 0 | PLK1 = 0 | PRKAA1 = 0 | PRKCA 0 | PTK2 = 0 | PTK2B 0 | RAF1 = 0 | [1] 0

C=CC(=O)Nc1cccc(Oc2nc(Nc3ccc(N4CCN(C)CC4)cc3)ncc2Cl)c1 (2.5 µM)
inactive: MAPK1 = 0 | MAPK4 = 0 | MAPKAPK2 = 0 | MKNK1 = 0 | NTRK2 = 0 | NTRK3 = 0 | PAK4 = 0 | PBK 0 | PDGFRB 0 | PDK1 = 0 | PDPK1 = 0 | PIK4CA 0 | PIK4CB 0 | PLK1 = 0 | PRKAA1 = 0 | PRKCA 0 | PTK2 = 0 | PTK2B 0 | RAF1 = 0 | [1] 0

CC(C)(O)c1cc(Nc2cc(Oc3cn(C4CC4)nc3C3CCOCC3)ccn2)ccn1 (10 µM)
inactive: MAPK1 = 0 | MAPK4 = 0 | MAPKAPK2 = 0 | MKNK1 = 0 | NTRK2 = 0 | NTRK3 = 0 | PAK4 = 0 | PBK 0 | PDGFRB 0 | PDK1 = 0 | PDPK1 = 0 | PIK4CA 0 | PIK4CB 0 | PLK1 = 0 | PRKAA1 = 0 | PRKCA 0 | PTK2 = 0 | PTK2B 0 | RAF1 = 0 | [1] 0

At a glance, 3 of the compounds above:
CN(C)CCCNc1ccn2ncc(-c3ccc4c(c3)OCO4)c2n1 (10 µM)
inactive: MAPK1 = 0 | MAPK4 = 0 | MAPKAPK2 = 0 | MKNK1 = 0 | NTRK2 = 0 | NTRK3 = 0 | PAK4 = 0 | PBK 0 | PDGFRB 0 | PDK1 = 0 | PDPK1 = 0 | PIK4CA 0 | PIK4CB 0 | PLK1 = 0 | PRKAA1 = 0 | PRKCA 0 | PTK2 = 0 | PTK2B 0 | RAF1 = 0 | [1] 0

C=CC(=O)Nc1cccc(Oc2nc(Nc3ccc(N4CCN(C)CC4)cc3)ncc2Cl)c1 (2.5 µM)
inactive: MAPK1 = 0 | MAPK4 = 0 | MAPKAPK2 = 0 | MKNK1 = 0 | NTRK2 = 0 | NTRK3 = 0 | PAK4 = 0 | PBK 0 | PDGFRB 0 | PDK1 = 0 | PDPK1 = 0 | PIK4CA 0 | PIK4CB 0 | PLK1 = 0 | PRKAA1 = 0 | PRKCA 0 | PTK2 = 0 | PTK2B 0 | RAF1 = 0 | [1] 0

CC(C)(O)c1cc(Nc2cc(Oc3cn(C4CC4)nc3C3CCOCC3)ccn2)ccn1 (10 µM)
inactive: MAPK1 = 0 | MAPK4 = 0 | MAPKAPK2 = 0 | MKNK1 = 0 | NTRK2 = 0 | NTRK3 = 0 | PAK4 = 0 | PBK 0 | PDGFRB 0 | PDK1 = 0 | PDPK1 = 0 | PIK4CA 0 | PIK4CB 0 | PLK1 = 0 | PRKAA1 = 0 | PRKCA 0 | PTK2 = 0 | PTK2B 0 | RAF1 = 0 | [1] 0

Going on with the list.

O=C(O)[C@]1(Cc2cccc(Nc3nccs3)n2)CC[C@@H](Oc2cccc(Cl)c2F)CC1 (2.5 µM)
inactive: MAPK1 = 0 | MAPK4 = 0 | MAPKAPK2 = 0 | MKNK1 = 0 | NTRK2 = 0 | NTRK3 = 0 | PAK4 = 0 | PBK 0 | PDGFRB 0 | PDK1 = 0 | PDPK1 = 0 | PIK4CA 0 | PIK4CB 0 | PLK1 = 0 | PRKAA1 = 0 | PRKCA 0 | PTK2 = 0 | PTK2B 0 | RAF1 = 0 | [1] 0
